Source: US9469853B2, “MCPIP protection against osteoclast production” (University of Central Florida Research Foundation, Inc., priority 2005, dated 2016)
For at least one compound, name, drawing or mass did not settle the structure.

What was measured:
[1] = test system: TRAP and CTSK expression in BMCs; test: Expression of OC markers TRAP and CTSK (immunoblot, real-time PCR); type: cell-based, human; details: MCPIP-transfected BMCs; inhibitors 6 h (CeO2 10 μM, apocynin 100 μg/ml, TUDC 100 μM, 3′-MA 50 μM, LY294002 20 μM) or siRNA/antisense 24 h before transfection
Protocol: (§1) BMCs were cultured in α-MEM supplemented with 10% FBS containing 30 ng/ml M-CSF, 100 U/ml penicillin, and 100 μg/ml streptomycin in 5% CO2 at 37° C. OC precursor cells were induced after 3-day culture as Ha et al. (2010). At this point, cells were treated with 50 ng/ml MCP-1, inhibitors, or gene transfection. For inhibitor treatment, CeO2 (10 μM), apocynin (100 μg/ml), TUDC (100 μM), 3′-MA (50 μM), and LY294002 (20 μM) were added 6 h before gene transfection.
OC precursor cells were transfected with 1 μg GFP or MCPIP-GFP eukaryotic expression plasmids for gene-gain-function assay by using Fugene 6. For gene silencing, chemically synthesized siRNA duplex (100 nM) targeting MCPIP, IRE-1, or Beclin-1 was transfected into OC precursor cells using DharmaFECT (Dharmacon) for 24 h prior to transfection with MCPIP-GFP or GFP plasmid. A scrambled siRNA was used as a negative control. […]
Cells were centrifuged after wash with PBS for twice. […] Relative quantitation of PCR products was done by the 2^−ΔΔCT method, CT=cycles to threshold, and ^ΔΔCT=(target gene CT)−(β-actin reference gene CT). […]
(§2) Sodium dodecyl sulfate-polyacrylamide gel electrophoresis (SDS-PAGE) and western blotting were performed as described elsewhere. […] The specific protein bands were quantified by densitometric analysis with GS-690 Image Densitometer (Bio-Rad).

Beclin-1, LC3, Atg7 = test: Autophagy markers (Beclin-1, LC3 lipidation, Atg7) expression; type: cell-based, human; details: MCPIP-transfected BMCs
Protocol: as §1
OC precursor cells were transfected with 1 μg GFP or MCPIP-GFP eukaryotic expression plasmids for gene-gain-function assay by using Fugene 6. For gene silencing, chemically synthesized siRNA duplex (100 nM) targeting MCPIP, IRE-1, or Beclin-1 was transfected into OC precursor cells using DharmaFECT (Dharmacon) for 24 h prior to transfection with MCPIP-GFP or GFP plasmid. A scrambled siRNA was used as a negative control. For knockdown expression of p47^PHOX, specific antisense (AS) (5′-[…]-3′ (SEQ ID NO: 5)) and sense (5′-[…]-3′ (SEQ ID NO: 6)) oligonucleotides were designed and synthesized by phosphorothioate modification by Integrated DNA Technologies. The oligonucleotides were transfected into OC precursor cells using Lipofectamine 2000 for 24 h before MCPIP-GFP plasmid transfection.
Cells were centrifuged after wash with PBS for twice. Cell pellet was resuspended in 1 ml Trizol reagent and the total RNA was extracted with chloroform and isopropanol, purified on Qiagen Mini-Prep column, and treated with DNase. […] Relative quantitation of PCR products was done by the 2^−ΔΔCT method, CT=cycles to threshold, and ^ΔΔCT=(target gene CT)−(β-actin reference gene CT). […]
as §2

In the case of O=c1cc(N2CCOCC2)oc2c(-c3ccccc3)cccc12 [LY294002], the “MCPIP-induced expression of TRAP and CTSK” value [1] was “significantly inhibited”, the “MCPIP-induced expression of Beclin-1” value (Beclin-1, LC3, Atg7) was “significantly inhibited” and the “lipidation of LC-3” value (Beclin-1, LC3, Atg7; immunoblot) was “inhibited”.

With COC[C@H]1OC(=O)c2coc3c2[C@@]1(C)C1=C(C3=O)[C@@H]2CCC(=O)[C@@]2(C)C[C@H]1OC(C)=O [wortmannin] the “MCPIP-induced expression of TRAP and CTSK” value [1] was “severely inhibited” and the “MCPIP-induced expression of Beclin-1” value (Beclin-1, LC3, Atg7) was “suppressed”.
